Some of the results follow.
Tests used:
Assay in all cases: log2 fold change, soluble protein after heating vs DMSO (PISA); higher = thermal stabilisation; K562 cells, 10 uM, 30 min; active = over 0.2 and 3.5 SD of the protein, either way, in both replicates (recomputed)
[1] = compound: C1=CC=C(C=C1)[C@H](COC2=CC3=C(C=C2)NC(=O)N3)NC(=O)C4=CC=CN(C4=O)CC5=CC(=C(C=C5)F)F
In short: (§1)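 K562 cells at 2×10^6 cells/mL were given 10 μM compound for 30 min. Aliquots then went through 3 min of heating across 48°C-58°C, were pooled, and were extracted in PBS with 0.5% NP-40 at 4°C, and the supernatant after 21,000xg for 90 min was quantified by TMTpro 16plex LC-MS/MS with channel sums equalised. Thermal stability relative to control samples, from duplicates, is given as log2 fold change.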

Protein sequences, listed by entry. Tags and fused reporters are not part of them. Lines headed by an entry give the natural chain unless they say otherwise; changes in a name come on top.
UniProt Q96RE7: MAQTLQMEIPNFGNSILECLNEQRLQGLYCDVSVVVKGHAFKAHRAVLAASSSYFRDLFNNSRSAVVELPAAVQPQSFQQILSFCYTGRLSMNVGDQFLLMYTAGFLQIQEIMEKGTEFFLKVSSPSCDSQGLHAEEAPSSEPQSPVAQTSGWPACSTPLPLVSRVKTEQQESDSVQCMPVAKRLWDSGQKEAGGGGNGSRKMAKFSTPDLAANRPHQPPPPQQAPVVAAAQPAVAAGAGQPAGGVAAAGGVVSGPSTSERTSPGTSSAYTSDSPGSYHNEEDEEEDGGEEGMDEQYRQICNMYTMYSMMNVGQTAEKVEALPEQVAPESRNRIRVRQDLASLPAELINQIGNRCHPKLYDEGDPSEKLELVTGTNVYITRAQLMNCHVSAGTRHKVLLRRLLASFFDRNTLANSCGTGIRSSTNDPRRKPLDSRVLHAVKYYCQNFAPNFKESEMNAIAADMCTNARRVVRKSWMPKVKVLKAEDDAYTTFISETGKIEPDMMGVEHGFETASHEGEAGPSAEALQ
UniProt Q96NT1: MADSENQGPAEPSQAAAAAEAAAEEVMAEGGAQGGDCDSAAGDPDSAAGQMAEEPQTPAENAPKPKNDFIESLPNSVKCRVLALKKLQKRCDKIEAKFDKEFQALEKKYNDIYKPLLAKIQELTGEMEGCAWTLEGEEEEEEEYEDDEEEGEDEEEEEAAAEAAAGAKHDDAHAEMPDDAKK
UniProt E9PAV3, whole entry, looked up: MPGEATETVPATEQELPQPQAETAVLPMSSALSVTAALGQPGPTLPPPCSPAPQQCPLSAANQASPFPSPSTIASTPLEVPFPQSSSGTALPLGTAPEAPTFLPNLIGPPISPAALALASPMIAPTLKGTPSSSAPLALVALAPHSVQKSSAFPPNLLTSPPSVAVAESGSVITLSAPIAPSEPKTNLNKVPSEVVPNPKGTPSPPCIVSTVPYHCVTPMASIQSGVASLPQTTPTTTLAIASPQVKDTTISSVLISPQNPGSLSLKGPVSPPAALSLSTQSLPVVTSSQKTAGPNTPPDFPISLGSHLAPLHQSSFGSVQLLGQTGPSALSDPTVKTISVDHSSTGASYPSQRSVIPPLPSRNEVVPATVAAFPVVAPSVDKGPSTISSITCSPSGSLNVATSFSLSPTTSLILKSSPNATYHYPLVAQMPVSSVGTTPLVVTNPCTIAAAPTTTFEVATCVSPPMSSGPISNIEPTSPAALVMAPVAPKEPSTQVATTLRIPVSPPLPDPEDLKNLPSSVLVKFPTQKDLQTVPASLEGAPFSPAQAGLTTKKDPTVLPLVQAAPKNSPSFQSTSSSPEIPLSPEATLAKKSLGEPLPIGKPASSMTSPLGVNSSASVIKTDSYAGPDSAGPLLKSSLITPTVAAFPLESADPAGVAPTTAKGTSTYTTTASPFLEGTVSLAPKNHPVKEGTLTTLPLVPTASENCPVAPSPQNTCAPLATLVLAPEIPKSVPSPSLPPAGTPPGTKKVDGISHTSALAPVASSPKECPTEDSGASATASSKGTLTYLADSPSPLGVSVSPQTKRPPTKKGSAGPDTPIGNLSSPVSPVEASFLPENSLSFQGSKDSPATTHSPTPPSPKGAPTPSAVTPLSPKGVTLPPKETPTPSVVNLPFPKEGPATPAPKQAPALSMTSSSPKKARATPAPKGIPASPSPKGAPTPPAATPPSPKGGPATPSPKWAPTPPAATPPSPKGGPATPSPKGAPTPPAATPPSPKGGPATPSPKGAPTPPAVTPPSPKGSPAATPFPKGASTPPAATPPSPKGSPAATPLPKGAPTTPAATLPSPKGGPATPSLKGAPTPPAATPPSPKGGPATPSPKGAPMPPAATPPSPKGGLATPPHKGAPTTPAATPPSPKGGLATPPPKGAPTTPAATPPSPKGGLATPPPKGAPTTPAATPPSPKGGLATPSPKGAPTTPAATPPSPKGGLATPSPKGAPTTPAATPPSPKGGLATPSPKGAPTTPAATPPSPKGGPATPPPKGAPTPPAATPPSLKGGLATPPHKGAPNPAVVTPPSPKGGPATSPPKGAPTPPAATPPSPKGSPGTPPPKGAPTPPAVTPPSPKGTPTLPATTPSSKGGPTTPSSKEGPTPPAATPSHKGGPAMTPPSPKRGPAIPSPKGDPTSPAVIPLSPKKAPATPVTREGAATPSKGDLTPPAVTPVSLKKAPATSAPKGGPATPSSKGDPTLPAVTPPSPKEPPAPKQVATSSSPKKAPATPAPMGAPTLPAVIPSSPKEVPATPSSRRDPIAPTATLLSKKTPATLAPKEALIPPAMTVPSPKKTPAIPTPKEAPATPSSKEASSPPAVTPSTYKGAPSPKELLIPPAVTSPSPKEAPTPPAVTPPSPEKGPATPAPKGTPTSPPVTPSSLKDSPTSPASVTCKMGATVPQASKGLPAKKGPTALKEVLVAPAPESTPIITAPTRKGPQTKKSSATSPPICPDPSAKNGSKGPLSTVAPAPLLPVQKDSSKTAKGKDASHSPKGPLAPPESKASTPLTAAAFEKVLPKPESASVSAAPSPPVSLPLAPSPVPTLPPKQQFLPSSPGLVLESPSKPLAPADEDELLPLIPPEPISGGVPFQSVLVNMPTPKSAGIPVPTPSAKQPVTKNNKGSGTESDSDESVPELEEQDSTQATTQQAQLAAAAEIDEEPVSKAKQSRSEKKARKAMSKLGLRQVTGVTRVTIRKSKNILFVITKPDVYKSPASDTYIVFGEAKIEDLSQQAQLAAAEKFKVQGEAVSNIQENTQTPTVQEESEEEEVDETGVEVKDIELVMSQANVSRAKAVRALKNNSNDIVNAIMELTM
UniProt Q69YL0: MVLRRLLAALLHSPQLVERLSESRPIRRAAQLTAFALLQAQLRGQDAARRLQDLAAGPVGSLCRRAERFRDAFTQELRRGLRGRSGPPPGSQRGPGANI
UniProt B2RBV5: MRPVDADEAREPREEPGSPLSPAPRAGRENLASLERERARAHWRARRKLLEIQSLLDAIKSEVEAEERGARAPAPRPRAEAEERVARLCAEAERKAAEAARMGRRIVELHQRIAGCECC
UniProt O00483, whole entry, looked up: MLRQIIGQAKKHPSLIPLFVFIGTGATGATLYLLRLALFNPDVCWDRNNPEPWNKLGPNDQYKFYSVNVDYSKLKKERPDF
UniProt Q14CX7, whole entry, looked up: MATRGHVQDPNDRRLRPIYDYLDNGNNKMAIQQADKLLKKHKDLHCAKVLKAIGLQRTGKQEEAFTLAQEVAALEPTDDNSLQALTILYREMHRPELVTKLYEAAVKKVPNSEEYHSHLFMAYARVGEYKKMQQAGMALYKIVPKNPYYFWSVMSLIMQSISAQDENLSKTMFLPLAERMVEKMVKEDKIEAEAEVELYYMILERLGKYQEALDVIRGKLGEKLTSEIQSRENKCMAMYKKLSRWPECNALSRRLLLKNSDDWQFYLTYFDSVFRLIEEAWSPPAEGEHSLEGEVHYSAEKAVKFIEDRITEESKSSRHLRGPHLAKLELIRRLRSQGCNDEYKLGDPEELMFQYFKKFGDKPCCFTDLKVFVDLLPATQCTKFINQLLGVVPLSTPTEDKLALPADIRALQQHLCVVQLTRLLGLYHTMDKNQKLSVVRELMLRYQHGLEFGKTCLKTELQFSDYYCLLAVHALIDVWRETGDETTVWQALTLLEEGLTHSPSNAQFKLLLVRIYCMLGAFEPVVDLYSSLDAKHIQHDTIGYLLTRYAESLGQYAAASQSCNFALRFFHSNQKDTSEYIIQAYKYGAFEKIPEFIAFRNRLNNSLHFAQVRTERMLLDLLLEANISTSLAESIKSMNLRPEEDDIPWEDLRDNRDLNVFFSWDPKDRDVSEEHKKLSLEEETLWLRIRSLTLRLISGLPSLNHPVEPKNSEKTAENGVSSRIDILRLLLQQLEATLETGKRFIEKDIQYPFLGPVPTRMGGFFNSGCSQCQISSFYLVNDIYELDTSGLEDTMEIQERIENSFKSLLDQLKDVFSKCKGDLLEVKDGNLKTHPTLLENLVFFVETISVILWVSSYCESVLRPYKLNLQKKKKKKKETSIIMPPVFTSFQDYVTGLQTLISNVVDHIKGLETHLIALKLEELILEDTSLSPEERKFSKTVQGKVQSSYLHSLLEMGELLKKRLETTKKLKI
UniProt P43490: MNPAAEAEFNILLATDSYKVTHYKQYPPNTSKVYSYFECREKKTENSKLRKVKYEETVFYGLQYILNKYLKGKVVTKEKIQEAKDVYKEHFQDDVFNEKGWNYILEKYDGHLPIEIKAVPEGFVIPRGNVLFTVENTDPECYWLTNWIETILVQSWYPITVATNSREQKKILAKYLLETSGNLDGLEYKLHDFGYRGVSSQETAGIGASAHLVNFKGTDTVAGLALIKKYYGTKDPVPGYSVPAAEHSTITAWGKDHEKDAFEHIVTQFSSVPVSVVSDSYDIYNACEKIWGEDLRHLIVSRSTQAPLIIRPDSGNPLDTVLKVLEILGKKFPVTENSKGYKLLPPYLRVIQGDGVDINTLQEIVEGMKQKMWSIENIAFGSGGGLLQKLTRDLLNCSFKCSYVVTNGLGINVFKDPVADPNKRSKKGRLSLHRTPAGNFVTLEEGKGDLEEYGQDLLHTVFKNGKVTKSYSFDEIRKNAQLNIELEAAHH
UniProt O95182, whole entry, looked up: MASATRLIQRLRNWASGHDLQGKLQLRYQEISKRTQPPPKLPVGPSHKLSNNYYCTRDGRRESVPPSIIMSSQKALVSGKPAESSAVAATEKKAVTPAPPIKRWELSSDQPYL
UniProt P52848: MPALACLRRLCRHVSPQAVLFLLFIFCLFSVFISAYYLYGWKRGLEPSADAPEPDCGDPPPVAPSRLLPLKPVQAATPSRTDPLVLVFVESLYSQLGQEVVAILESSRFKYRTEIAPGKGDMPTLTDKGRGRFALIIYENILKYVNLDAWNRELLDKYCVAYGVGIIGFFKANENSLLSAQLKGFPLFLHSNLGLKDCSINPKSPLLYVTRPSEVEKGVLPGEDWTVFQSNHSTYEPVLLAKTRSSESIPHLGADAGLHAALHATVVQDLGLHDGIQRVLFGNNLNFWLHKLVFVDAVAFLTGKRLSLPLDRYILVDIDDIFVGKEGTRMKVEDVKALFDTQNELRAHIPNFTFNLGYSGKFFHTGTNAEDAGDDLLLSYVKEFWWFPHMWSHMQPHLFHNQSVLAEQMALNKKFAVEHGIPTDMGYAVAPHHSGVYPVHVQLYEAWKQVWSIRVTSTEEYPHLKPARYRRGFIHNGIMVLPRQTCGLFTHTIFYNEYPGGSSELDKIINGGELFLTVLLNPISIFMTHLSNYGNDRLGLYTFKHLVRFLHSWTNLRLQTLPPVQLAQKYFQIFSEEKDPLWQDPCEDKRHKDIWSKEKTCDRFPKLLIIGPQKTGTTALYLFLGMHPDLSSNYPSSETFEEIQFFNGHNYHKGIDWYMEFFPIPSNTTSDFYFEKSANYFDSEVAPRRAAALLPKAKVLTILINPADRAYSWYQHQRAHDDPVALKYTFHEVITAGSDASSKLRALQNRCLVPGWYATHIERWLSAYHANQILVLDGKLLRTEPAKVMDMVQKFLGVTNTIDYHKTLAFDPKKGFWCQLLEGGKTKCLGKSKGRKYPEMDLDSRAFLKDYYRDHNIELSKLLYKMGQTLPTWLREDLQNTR
UniProt O43678, whole entry, looked up: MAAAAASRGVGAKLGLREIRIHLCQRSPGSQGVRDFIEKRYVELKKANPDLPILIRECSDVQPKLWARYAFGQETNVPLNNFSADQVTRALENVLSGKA
UniProt Q13564: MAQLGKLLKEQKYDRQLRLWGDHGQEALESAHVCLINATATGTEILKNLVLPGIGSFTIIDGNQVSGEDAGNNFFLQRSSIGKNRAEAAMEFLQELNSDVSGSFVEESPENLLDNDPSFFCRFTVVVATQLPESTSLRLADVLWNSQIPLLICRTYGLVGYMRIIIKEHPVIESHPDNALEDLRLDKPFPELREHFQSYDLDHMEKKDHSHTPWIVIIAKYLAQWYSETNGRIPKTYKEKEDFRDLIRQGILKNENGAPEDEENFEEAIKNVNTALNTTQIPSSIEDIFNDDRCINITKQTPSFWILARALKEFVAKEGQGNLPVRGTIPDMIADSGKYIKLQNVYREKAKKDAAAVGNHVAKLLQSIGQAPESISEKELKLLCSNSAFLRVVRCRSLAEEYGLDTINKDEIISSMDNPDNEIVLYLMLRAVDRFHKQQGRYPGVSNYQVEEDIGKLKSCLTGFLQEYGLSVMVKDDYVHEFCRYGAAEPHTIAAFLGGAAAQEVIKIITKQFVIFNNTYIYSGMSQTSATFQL
UniProt O43639, whole entry, looked up: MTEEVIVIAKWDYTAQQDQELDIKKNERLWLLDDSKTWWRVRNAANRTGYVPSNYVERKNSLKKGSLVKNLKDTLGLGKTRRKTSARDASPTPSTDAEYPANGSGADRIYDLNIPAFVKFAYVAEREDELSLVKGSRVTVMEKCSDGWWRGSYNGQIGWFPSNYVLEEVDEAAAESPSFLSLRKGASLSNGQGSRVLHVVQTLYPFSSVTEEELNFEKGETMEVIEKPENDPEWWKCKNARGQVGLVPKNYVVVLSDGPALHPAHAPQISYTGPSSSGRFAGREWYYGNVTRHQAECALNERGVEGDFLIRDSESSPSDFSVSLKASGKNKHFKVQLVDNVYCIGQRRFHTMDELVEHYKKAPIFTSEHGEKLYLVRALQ

[2] = compound: CC1=C(SC2=C1C(=N[C@H](C3=NN=C(N32)C)CC(=O)N)C4=CC=C(C=C4)Cl)C
In short: as §1

[3] = compound: CC1=C2C(=CC=C1)N=C(N(C2=O)C3=CC=CC=C3C)CN4C=NC5=C(N=CN=C54)N
In short: as §1

[4] = compound: Cc1sc2c(c1C)C(c1ccc(Cl)cc1)=N[C@@H](CC(=O)OC(C)(C)C)c1nnc(C)n1-2
In short: as §1

[5] = compound: c1ccc([C@@H]2C[C@H]2NC2CCNCC2)cc1
In short: as §1

Measured: log2 fold change

N6AMT1 (UniProt Q9Y5N5)
inactive: [1] -0.033 | [2] 0.059 | [3] 0.09 | [4] -0.175 | [5] 0.004

NCALD (UniProt P61601)
inactive: [1] -0.018 | [2] 0.062 | [3] 0.044 | [4] 0.035 | [5] -0.03

NACC1 (UniProt Q96RE7)
inactive: [1] -0.029 | [2] 0.039 | [3] 0.092 | [4] -0.037 | [5] -0.015

NAGK isoform 2 (UniProt Q9UJ70)
inactive: [1] 0.06 | [2] 0.039 | [3] 0.047 | [4] 0.031 | [5] 0.016

NAP1L5 (UniProt Q96NT1)
inactive: [1] -0.107 | [2] 0.017 | [3] 0.097 | [4] -0.008 | [5] 0.046

MYSM1 (UniProt Q5VVJ2)
inactive: [1] 0.07

NACA (UniProt E9PAV3)
inactive: [1] 0.012 | [2] -0.024 | [3] -0.057 | [4] 0.057 | [5] 0.071

NCBP2AS2 (UniProt Q69YL0)
inactive: [1] 0.02 | [2] 0.019 | [3] 0.048 | [4] -0.038 | [5] -0.003

2 successive records already listed, quoted:
MYSM1 (UniProt Q5VVJ2)
inactive: [1] 0.07

NACA (UniProt E9PAV3)
inactive: [1] 0.012 | [2] -0.024 | [3] -0.057 | [4] 0.057 | [5] 0.071

Later entries:

NA (UniProt B2RBV5)
inactive: [1] 0.002

NDUFA4 (UniProt O00483)
inactive: [1] 0 | [2] 0.005 | [3] 0.014 | [4] -0.031 | [5] 0.046

NA (UniProt J3KR12)
inactive: [1] -0.042

NCOA7 (UniProt Q8NI08)
inactive: [1] 0.03 | [2] 0.093 | [3] 0.036 | [4] 0.016 | [5] -0.058

NAA25 (UniProt Q14CX7)
inactive: [1] 0.006 | [2] 0.059 | [3] 0.055 | [4] -0.017 | [5] -0.025

NAMPT (UniProt P43490)
inactive: [1] 0.021 | [2] -0.001 | [3] 0.008 | [4] -0.012 | [5] 0.003

NDUFV3 isoform 2 (UniProt P56181)
inactive: [1] 0.031 | [2] -0.002 | [3] -0.042 | [4] 0.022 | [5] 0.066

NANS (UniProt Q9NR45)
inactive: [1] -0.031 | [2] 0.065 | [3] 0.071 | [4] -0.015 | [5] -0.024

NARS2 (UniProt Q96I59)
inactive: [1] 0 | [2] 0.057 | [3] 0.059 | [4] 0 | [5] -0.027

NDRG2 (UniProt G3V392)
inactive: [1] -0.268

NAA15 (UniProt Q9BXJ9)
inactive: [1] -0.002 | [2] 0.022 | [3] 0.009 | [4] -0.022 | [5] -0.034

NDUFA6 (UniProt P56556)
inactive: [1] -0.017 | [2] 0.121 | [3] 0.104 | [4] -0.067 | [5] -0.039

NDUFA7 (UniProt O95182)
inactive: [1] 0.007 | [2] 0.002 | [3] 0.007 | [4] 0.008 | [5] 0.034

NCSTN (UniProt Q92542)
inactive: [1] 0.008 | [2] 0.008 | [3] 0.012 | [4] 0.003 | [5] 0.041

NDST1 (UniProt P52848)
inactive: [1] 0 | [2] -0.152 | [3] 0.098 | [4] -0.045 | [5] -0.036

NAXE (UniProt Q8NCW5)
inactive: [1] 0.023 | [2] 0.108 | [3] 0.029 | [4] -0.098 | [5] -0.026

NDUFA2 (UniProt O43678)
inactive: [1] 0.022 | [2] 0.111 | [3] 0.085 | [4] -0.097 | [5] -0.069

NAE1 (UniProt Q13564)
inactive: [1] -0.04 | [2] 0.018 | [3] 0.04 | [4] 0.033 | [5] -0.011

NCK2 (UniProt O43639)
inactive: [1] -0.057 | [2] 0.066 | [3] 0.259 | [4] -0.143 | [5] -0.015
